Measured values taken from paper PMC12564946 (Marine Drugs, 2025).
Some peptides are written in HELM: one residue between dots, names in brackets for other building blocks, links after the first $.

Experiment: peptide made by a vendor
Conditions: whole synthesis

Row | Substance | purity (crude or final not stated) [%]
1 | FITC-labeled QLNWD | 98.56
2 | PEPTIDE1{Q.L.N.W.D}$$$$V2.0 | 98.46
